{"source": "PubChem BioAssay AID493014", "about": "(National Center for Advancing Translational Sciences (NCATS), 2011)", "experiment": "qHTS Assay to Find Inhibitors of Chronic Active B-Cell Receptor Signaling", "settings": "ABC-DLBCL IkBa-CBG/CBR reporter, luminescence ratio (green luciferase fused to IkBa over red control in TMD8 lymphoma cells), 4 h", "procedure,_shortened": "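TMD8 ABC-DLBCL cells carrying doxycycline-inducible green luciferase fused to IkappaBalpha plus unfused red luciferase were exposed to compounds (up to 46 uM) for 4 hrs at 37C. Activity came from the overlap-corrected green/red luminescence ratio.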", "key": {"[1]": {"settings": "measured here: CBR red luminescence, cell number"}, "[2]": {"settings": "measured here: IkBa-CBG green luminescence"}}, "note": "Some of the results follow. Further columns of the screen follow, without active or inactive calls. Most of these compounds were active or inconclusive in the main read-out, so they are no random draw. The note in brackets gives the kind of curve behind each potency; many fits are weak.", "data": [{"smiles": "COc1ccc(C2C(C(=O)Nc3ccccc3OC)=C(C)Nc3ncnn32)cc1", "note": "(centres undefined)", "values": [{"measurement": "AC50", "setting": "[1]", "result": "32.6 µM [falling, single point]"}]}, {"smiles": "O=C(Nc1nc2ccccc2s1)C1c2ccccc2Oc2ccccc21", "values": [{"measurement": "AC50", "setting": "[1]", "result": "20.6 µM [falling, single point]"}, {"measurement": "AC50", "setting": "[2]", "result": "16.4 µM [rising, single point]"}]}, {"smiles": "O=C(NCc1ccc(F)cc1)C1CCCN(S(=O)(=O)c2ccc(Br)s2)C1", "note": "(centres undefined)", "values": [{"measurement": "AC50", "setting": "[1]", "result": "10 µM [falling, partial curve, poor fit]"}]}, {"smiles": "COc1cc(Cl)c(C)cc1NC(=O)Cc1ccc(OC)c(OC)c1", "values": [{"measurement": "AC50", "setting": "[1]", "result": "35.5 µM [falling, single point]"}]}, {"smiles": "O=C(CN(c1cccc(C(F)(F)F)c1)S(=O)(=O)c1ccc(Cl)c([N+](=O)[O-])c1)NCc1ccccc1", "values": [{"measurement": "AC50", "setting": "[1]", "result": "29.1 µM [falling, single point]"}]}, {"smiles": "Nc1c(C(=O)N2CCCCC2)sc(=S)n1-c1ccccc1", "values": [{"measurement": "AC50", "setting": "[1]", "result": "20.6 µM [falling, partial curve, poor fit]"}]}, {"smiles": "CCN(CC)c1ccc(-c2nn3c(-c4n[nH]c5c4CCC5)nnc3s2)cc1", "values": [{"measurement": "AC50", "setting": "[1]", "result": "7.94 µM [rising, partial curve]"}, {"measurement": "AC50", "setting": "[2]", "result": "8.91 µM [falling, partial curve]"}]}, {"smiles": "COc1ccc(C(=O)CSc2nccn2C)cc1", "values": [{"measurement": "AC50", "setting": "[1]", "result": "35.5 µM [falling, single point]"}]}, {"smiles": "C=CCOc1ccc(C(=O)c2ccccc2)c(OCC(=O)NC2(C#N)CCCC2)c1", "values": [{"measurement": "AC50", "setting": "[1]", "result": "8.91 µM [falling, partial curve, poor fit]"}]}, {"smiles": "CC(Sc1ccc2ccccc2n1)C(=O)O", "note": "(centres undefined)", "values": [{"measurement": "AC50", "setting": "[1]", "result": "0.447 µM [falling, partial curve, poor fit]"}]}, {"smiles": "Cc1cc(C(=O)COc2cc(F)ccc2[N+](=O)[O-])c(C)n1CC1CCCO1", "note": "(centres undefined)", "values": [{"measurement": "AC50", "setting": "[1]", "result": "23.1 µM [falling, single point]"}]}, {"smiles": "CCC1(c2ccccc2)NC(=S)N(c2ccc(C)cc2)N1", "note": "(centres undefined)", "values": [{"measurement": "AC50", "setting": "[1]", "result": "1.58 µM [rising, full curve]"}]}, {"smiles": "CCC(Sc1nc(C)cc(C)n1)C(=O)Nc1cc(C)on1", "note": "(centres undefined)", "values": [{"measurement": "AC50", "setting": "[1]", "result": "3.16 µM [falling, single point]"}]}, {"smiles": "CCOCCCNC(=O)/C(C#N)=C/c1ccc([N+](=O)[O-])o1", "values": [{"measurement": "AC50", "setting": "[1]", "result": "25.1 µM [falling, single point]"}]}, {"smiles": "O=[N+]([O-])c1ccc(O)c(N=Cc2sc3ccccc3c2O)c1", "values": [{"measurement": "AC50", "setting": "[1]", "result": "8.2 µM [falling, partial curve]"}]}, {"smiles": "Nc1nc(SCC(=O)c2ccc(Oc3ccccc3)cc2)n[nH]1", "values": [{"measurement": "AC50", "setting": "[1]", "result": "6.51 µM [rising, single point]"}]}, {"smiles": "O=C(c1ccc(-c2ccccc2)cc1)N1CCN(Cc2ccccn2)CC1", "values": [{"measurement": "AC50", "setting": "[1]", "result": "35.5 µM [falling, single point]"}]}, {"smiles": "Cc1ccc(N(CC(=O)NCc2ccco2)C(=O)CCC(=O)Nc2ccccn2)cc1C", "values": [{"measurement": "AC50", "setting": "[1]", "result": "35.5 µM [falling, single point]"}]}, {"smiles": "O=C(NCC1CCCO1)c1cc2c(=O)[nH]c3ccccc3c2s1", "note": "(centres undefined)", "values": [{"measurement": "AC50", "setting": "[1]", "result": "8.91 µM [falling, partial curve, poor fit]"}]}, {"smiles": "COc1ccc(-c2cn3ccccc3n2)cc1", "values": [{"measurement": "AC50", "setting": "[1]", "result": "12.6 µM [falling, single point]"}]}, {"smiles": "O=C(NCc1ccccc1Cl)C(=O)c1cn(CC(=O)N2CCOCC2)c2ccccc12", "values": [{"measurement": "AC50", "setting": "[1]", "result": "1.41 µM [falling, full curve]"}]}, {"smiles": "CCOC(=O)C(CC)/C(C)=N\\NC(=O)c1cccc(C)c1", "note": "(centres undefined)", "values": [{"measurement": "AC50", "setting": "[1]", "result": "2 µM [falling, partial curve]"}]}, {"smiles": "COc1cc(Cl)ccc1OCc1cc(C(=O)N(C)Cc2nnc(C)o2)no1", "values": [{"measurement": "AC50", "setting": "[1]", "result": "3.55 µM [falling, full curve]"}]}, {"smiles": "CC1CC(C)(C)NC(=S)O1", "note": "(centres undefined)", "values": [{"measurement": "AC50", "setting": "[1]", "result": "12.6 µM [rising, single point]"}]}, {"smiles": "Cc1cccc(Nc2nc(N)c([N+](=O)[O-])c(NCc3ccco3)n2)c1", "values": [{"measurement": "AC50", "setting": "[1]", "result": "5.17 µM [falling, single point]"}]}, {"smiles": "CCc1cccc(C)c1NC(=S)NCc1ccccc1", "values": [{"measurement": "AC50", "setting": "[1]", "result": "2.31 µM [rising, partial curve, poor fit]"}]}, {"smiles": "Cc1ccc(N/N=C2\\CS(=O)(=O)N(C)c3ccsc32)cc1", "values": [{"measurement": "AC50", "setting": "[1]", "result": "3.55 µM [rising, partial curve, poor fit]"}]}, {"smiles": "COc1cc(C#Cc2c(-c3cncn3C)n(C)c3ccc(-c4ccc5[nH]ccc5c4)cc23)cc(OC)c1", "values": [{"measurement": "AC50", "setting": "[1]", "result": "20.6 µM [rising, single point]"}]}, {"smiles": "Nc1c(-c2ccccc2)sc2ccc3ccccc3[n+]12", "values": [{"measurement": "AC50", "setting": "[1]", "result": "11.2 µM [rising, partial curve]"}]}, {"smiles": "O=C(OCC(=O)N1CCCCCC1)c1ccc[nH]c1=O", "values": [{"measurement": "AC50", "setting": "[1]", "result": "29.1 µM [rising, single point]"}]}, {"smiles": "COc1ccc(N(Cc2cc3ccccc3[nH]c2=O)S(=O)(=O)c2ccccc2)cc1", "values": [{"measurement": "AC50", "setting": "[1]", "result": "28.2 µM [falling, single point]"}]}, {"smiles": "CC(C)(C)[C@@H]1CCC(=O)N(CC[C@H](Sc2ccccc2)c2ccccc2)CC1", "values": [{"measurement": "AC50", "setting": "[2]", "result": "15.8 µM [rising, single point]"}]}, {"smiles": "O=C(NC(=S)N1CCOCC1)c1ccc([N+](=O)[O-])cc1", "values": [{"measurement": "AC50", "setting": "[2]", "result": "25.9 µM [falling, single point]"}]}, {"smiles": "COc1ccc(NC(=O)c2ccccc2Sc2ccc(NC(C)=O)nc2)cc1", "values": [{"measurement": "AC50", "setting": "[1]", "result": "10 µM [falling, partial curve, poor fit]"}]}, {"smiles": "N#C/C(=C\\c1cccnc1)C(=O)Nc1ccc(C(=O)O)cc1", "values": [{"measurement": "AC50", "setting": "[1]", "result": "8.91 µM [falling, partial curve]"}]}, {"smiles": "CC1=C(C#N)C(=O)NC(C)(C)C1", "values": [{"measurement": "AC50", "setting": "[1]", "result": "4.61 µM [rising, full curve, poor fit]"}]}, {"smiles": "Cc1[nH]c2ccccc2c1-c1nc2ccccc2[nH]1", "values": [{"measurement": "AC50", "setting": "[1]", "result": "1.26 µM [falling, partial curve, poor fit]"}]}, {"smiles": "O=C(CCNC(=O)c1ccc(Br)cc1)Nc1cccc(S(=O)(=O)N2CCCCCC2)c1", "values": [{"measurement": "AC50", "setting": "[1]", "result": "20.6 µM [falling, single point]"}]}, {"smiles": "O=C(NCCc1ccccc1)NC(Cc1ccccc1)C(=O)O", "note": "(centres undefined)", "values": [{"measurement": "AC50", "setting": "[1]", "result": "11.2 µM [rising, partial curve, poor fit]"}]}, {"smiles": "Cc1nc(Nc2cccc(O)c2)c2c3c(sc2n1)CCC3", "values": [{"measurement": "AC50", "setting": "[1]", "result": "0.316 µM [rising, full curve, poor fit]"}]}, {"smiles": "O=C(Nc1ccc(Br)cn1)c1coc(=O)c(Br)c1", "values": [{"measurement": "AC50", "setting": "[1]", "result": "10 µM [falling, partial curve, poor fit]"}]}, {"smiles": "O=C(Nc1c(F)cc(F)cc1Br)c1cc(-c2ccc(O)cc2)on1", "values": [{"measurement": "AC50", "setting": "[1]", "result": "0.631 µM [falling, full curve, poor fit]"}]}]}
